The record followed here is publication doi:10.1101/2020.05.13.090514.

By UniProt entry, the sequences of proteins in these tests, tags left out.
UniProt O75396: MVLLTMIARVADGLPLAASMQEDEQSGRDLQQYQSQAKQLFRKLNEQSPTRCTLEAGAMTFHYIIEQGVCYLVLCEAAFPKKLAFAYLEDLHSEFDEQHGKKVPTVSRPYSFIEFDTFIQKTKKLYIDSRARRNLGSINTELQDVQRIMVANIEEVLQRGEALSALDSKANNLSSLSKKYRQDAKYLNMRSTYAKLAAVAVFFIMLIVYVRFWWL
UniProt O00214: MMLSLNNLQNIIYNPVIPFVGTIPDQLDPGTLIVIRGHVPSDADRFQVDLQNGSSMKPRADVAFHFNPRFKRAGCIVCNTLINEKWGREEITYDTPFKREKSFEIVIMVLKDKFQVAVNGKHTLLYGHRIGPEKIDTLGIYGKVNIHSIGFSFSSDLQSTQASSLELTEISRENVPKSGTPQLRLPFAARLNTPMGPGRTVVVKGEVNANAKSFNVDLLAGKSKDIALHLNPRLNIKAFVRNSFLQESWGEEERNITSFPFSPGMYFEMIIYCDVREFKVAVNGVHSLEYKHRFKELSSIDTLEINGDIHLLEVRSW
UniProt P61081: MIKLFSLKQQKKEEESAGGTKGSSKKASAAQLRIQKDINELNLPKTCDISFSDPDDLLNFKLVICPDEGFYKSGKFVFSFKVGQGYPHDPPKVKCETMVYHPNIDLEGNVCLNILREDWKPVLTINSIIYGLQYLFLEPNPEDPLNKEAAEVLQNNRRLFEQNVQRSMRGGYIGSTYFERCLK

Common to all, as to experiment: co-IP
In test [1] the target is T1, FLAG-tagged FKBP51 (FK506-binding protein 51), expressed in SH-SY5Y cells (UniProt Q13451).
T1 sequence: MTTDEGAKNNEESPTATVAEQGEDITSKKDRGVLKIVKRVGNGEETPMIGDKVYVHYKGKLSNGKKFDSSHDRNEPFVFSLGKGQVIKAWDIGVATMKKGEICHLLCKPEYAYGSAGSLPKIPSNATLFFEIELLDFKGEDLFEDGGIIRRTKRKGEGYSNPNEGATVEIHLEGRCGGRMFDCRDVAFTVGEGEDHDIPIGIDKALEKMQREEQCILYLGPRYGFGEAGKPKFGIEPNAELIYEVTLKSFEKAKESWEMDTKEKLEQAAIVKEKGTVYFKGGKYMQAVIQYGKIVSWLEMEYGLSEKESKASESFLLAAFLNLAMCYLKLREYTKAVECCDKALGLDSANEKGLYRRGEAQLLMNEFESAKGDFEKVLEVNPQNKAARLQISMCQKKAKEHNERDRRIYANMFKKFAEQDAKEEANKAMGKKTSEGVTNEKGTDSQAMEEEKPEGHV

The target in test [2] is T1, FLAG-tagged FKBP51 (FK506-binding protein 51), expressed in SH-SY5Y cells. The source holds these as a separate data set.
The target of test [3] is GFP-tagged SEC22B, expressed in SH-SY5Y cells (UniProt O75396).

Like-named read-outs stand apart in the source and are kept apart here. Results are given in words; binding and its absence hold for the method and conditions named. In cells and extracts the contact can be indirect. Some binding calls cover weakened binding; strength is not graded here. For some assays here: Tags and fused reporters may be left off the sequences shown.

For the molecule “galectin-8 (GAL8) in SH-SY5Y cells (from UniProt O00214 1-317)”, the binding entry in test [1] was “binds”. Regarding “UBC12 in SH-SY5Y cells (from UniProt P61081 1-183)”, the binding result in test [1] is “binds”. Same read-out and setting: under “SEC22B detected by blot in FLAG immunoprecipitates from SH-SY5Y cells (from UniProt O75396 1-215)” stands “binds”.

B1: syntaxin 3 (STX3) in SH-SY5Y cells (protein, UniProt Q13277 1-289)
chain: MKDRLEQLKAKQLTQDDDTDAVEIAIDNTAFMDEFFSEIEETRLNIDKISEHVEEAKKLYSIILSAPIPEPKTKDDLEQLTTEIKKRANNVRNKLKSMEKHIEEDEVRSSADLRIRKSQHSVLSRKFVEVMTKYNEAQVDFRERSKGRIQRQLEITGKKTTDEELEEMLESGNPAIFTSGIIDSQISKQALSEIEGRHKDIVRLESSIKELHDMFMDIAMLVENQGEMLDNIELNVMHTVDHVEKARDETKKAVKYQSQARKKLIIIIVLVVVLLGILALIIGLSVGLN
Consider B1, for which the binding result is reported as “binds” in test [2] and “binds weakly” in test [3].

B2: synaptosomal-associated protein SNAP23 in SH-SY5Y cells (protein, UniProt O00161 1-211)
chain: MDNLSSEEIQQRAHQITDESLESTRRILGLAIESQDAGIKTITMLDEQKEQLNRIEEGLDQINKDMRETEKTLTELNKCCGLCVCPCNRTKNFESGKAYKTTWGDGGENSPCNVVSKQPGPVTNGQLQQPTTGAASGGYIKRITNDAREDEMEENLTQVGSILGNLKDMALNIGNEIDAQNPQIKRITDKADTNRDRIDIANARAKKLIDS
With B2, the binding entry in test [2] is on record as “binds”; in test [3] it was “binds weakly”.

B3: FKBP51 of SH-SY5Y cells, detected by blot in immunoprecipitates of its partners (protein, UniProt Q13451 1-457)
chain: MTTDEGAKNNEESPTATVAEQGEDITSKKDRGVLKIVKRVGNGEETPMIGDKVYVHYKGKLSNGKKFDSSHDRNEPFVFSLGKGQVIKAWDIGVATMKKGEICHLLCKPEYAYGSAGSLPKIPSNATLFFEIELLDFKGEDLFEDGGIIRRTKRKGEGYSNPNEGATVEIHLEGRCGGRMFDCRDVAFTVGEGEDHDIPIGIDKALEKMQREEQCILYLGPRYGFGEAGKPKFGIEPNAELIYEVTLKSFEKAKESWEMDTKEKLEQAAIVKEKGTVYFKGGKYMQAVIQYGKIVSWLEMEYGLSEKESKASESFLLAAFLNLAMCYLKLREYTKAVECCDKALGLDSANEKGLYRRGEAQLLMNEFESAKGDFEKVLEVNPQNKAARLQISMCQKKAKEHNERDRRIYANMFKKFAEQDAKEEANKAMGKKTSEGVTNEKGTDSQAMEEEKPEGHV
Consider B3, for which the binding entry in test [3] is reported as “binds”.
